Experimental data published in publication PMC10336126.
Read-outs that look alike come from different tables or passages of the source. No constants are given. Whether binding was seen depends on the method and setting. Binding seen in cells or lysates may run through a third protein. These calls come from enrichment with a bait or labelling near it, and not all partners need be listed. For part of these data: Where a sequence is shown, tags or fusion partners need not be part of it.

Chains of the proteins cited; added tags and fusions are not shown.
UniProt P32598: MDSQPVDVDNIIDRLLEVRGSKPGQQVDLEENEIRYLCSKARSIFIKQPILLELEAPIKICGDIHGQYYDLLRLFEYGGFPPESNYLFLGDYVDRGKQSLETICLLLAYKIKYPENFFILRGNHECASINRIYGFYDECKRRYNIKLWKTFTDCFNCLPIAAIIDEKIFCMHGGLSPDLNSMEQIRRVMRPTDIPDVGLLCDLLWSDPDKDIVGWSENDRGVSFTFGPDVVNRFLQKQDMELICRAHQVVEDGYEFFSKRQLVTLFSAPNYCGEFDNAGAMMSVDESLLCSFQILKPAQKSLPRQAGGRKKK
UniProt P29539: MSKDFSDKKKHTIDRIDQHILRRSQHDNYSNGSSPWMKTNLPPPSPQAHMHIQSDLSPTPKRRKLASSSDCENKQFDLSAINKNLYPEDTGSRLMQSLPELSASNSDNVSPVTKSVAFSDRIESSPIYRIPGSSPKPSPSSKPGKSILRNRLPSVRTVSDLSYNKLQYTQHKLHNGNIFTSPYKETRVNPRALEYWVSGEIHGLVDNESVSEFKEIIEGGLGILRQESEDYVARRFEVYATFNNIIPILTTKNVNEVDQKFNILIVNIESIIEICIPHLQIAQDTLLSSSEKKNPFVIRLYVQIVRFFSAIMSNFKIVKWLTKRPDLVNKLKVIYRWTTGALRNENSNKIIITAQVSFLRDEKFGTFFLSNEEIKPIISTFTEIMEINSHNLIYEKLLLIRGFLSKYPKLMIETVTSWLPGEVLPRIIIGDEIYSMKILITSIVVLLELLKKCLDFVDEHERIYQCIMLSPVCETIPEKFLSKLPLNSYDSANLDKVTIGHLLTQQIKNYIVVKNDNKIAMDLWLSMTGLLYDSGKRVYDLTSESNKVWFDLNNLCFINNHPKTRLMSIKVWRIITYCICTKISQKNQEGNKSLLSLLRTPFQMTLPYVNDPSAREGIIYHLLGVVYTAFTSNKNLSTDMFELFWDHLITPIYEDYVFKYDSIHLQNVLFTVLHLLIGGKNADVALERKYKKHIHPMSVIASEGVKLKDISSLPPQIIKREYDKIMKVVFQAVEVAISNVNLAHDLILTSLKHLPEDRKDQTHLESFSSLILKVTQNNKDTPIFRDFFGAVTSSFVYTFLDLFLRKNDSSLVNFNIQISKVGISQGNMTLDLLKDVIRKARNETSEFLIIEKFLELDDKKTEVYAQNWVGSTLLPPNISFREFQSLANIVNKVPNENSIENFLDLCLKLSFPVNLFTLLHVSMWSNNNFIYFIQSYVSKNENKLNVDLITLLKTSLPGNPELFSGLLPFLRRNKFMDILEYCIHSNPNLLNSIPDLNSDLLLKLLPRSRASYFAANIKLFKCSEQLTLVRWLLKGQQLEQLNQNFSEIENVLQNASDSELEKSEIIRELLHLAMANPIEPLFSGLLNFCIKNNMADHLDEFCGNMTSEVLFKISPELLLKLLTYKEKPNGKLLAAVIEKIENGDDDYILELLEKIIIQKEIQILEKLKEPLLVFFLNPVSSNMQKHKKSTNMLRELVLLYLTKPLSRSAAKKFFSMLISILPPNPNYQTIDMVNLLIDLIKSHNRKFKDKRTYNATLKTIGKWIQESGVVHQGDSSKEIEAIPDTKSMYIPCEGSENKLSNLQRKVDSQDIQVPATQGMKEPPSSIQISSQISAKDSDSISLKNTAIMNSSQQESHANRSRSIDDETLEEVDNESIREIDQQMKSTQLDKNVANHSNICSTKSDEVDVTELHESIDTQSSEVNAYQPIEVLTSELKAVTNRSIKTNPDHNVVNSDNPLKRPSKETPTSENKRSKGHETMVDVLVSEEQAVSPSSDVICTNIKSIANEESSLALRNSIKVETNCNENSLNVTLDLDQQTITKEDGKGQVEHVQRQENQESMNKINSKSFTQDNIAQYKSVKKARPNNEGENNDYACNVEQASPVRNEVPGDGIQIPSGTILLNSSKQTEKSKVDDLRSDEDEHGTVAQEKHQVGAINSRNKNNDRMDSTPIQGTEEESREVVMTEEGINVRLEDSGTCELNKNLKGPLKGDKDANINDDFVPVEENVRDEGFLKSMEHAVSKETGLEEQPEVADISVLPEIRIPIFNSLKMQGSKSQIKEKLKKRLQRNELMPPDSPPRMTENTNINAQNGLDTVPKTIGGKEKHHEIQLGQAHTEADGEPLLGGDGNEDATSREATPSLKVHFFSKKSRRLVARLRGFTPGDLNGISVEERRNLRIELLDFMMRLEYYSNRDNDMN
UniProt Q00416: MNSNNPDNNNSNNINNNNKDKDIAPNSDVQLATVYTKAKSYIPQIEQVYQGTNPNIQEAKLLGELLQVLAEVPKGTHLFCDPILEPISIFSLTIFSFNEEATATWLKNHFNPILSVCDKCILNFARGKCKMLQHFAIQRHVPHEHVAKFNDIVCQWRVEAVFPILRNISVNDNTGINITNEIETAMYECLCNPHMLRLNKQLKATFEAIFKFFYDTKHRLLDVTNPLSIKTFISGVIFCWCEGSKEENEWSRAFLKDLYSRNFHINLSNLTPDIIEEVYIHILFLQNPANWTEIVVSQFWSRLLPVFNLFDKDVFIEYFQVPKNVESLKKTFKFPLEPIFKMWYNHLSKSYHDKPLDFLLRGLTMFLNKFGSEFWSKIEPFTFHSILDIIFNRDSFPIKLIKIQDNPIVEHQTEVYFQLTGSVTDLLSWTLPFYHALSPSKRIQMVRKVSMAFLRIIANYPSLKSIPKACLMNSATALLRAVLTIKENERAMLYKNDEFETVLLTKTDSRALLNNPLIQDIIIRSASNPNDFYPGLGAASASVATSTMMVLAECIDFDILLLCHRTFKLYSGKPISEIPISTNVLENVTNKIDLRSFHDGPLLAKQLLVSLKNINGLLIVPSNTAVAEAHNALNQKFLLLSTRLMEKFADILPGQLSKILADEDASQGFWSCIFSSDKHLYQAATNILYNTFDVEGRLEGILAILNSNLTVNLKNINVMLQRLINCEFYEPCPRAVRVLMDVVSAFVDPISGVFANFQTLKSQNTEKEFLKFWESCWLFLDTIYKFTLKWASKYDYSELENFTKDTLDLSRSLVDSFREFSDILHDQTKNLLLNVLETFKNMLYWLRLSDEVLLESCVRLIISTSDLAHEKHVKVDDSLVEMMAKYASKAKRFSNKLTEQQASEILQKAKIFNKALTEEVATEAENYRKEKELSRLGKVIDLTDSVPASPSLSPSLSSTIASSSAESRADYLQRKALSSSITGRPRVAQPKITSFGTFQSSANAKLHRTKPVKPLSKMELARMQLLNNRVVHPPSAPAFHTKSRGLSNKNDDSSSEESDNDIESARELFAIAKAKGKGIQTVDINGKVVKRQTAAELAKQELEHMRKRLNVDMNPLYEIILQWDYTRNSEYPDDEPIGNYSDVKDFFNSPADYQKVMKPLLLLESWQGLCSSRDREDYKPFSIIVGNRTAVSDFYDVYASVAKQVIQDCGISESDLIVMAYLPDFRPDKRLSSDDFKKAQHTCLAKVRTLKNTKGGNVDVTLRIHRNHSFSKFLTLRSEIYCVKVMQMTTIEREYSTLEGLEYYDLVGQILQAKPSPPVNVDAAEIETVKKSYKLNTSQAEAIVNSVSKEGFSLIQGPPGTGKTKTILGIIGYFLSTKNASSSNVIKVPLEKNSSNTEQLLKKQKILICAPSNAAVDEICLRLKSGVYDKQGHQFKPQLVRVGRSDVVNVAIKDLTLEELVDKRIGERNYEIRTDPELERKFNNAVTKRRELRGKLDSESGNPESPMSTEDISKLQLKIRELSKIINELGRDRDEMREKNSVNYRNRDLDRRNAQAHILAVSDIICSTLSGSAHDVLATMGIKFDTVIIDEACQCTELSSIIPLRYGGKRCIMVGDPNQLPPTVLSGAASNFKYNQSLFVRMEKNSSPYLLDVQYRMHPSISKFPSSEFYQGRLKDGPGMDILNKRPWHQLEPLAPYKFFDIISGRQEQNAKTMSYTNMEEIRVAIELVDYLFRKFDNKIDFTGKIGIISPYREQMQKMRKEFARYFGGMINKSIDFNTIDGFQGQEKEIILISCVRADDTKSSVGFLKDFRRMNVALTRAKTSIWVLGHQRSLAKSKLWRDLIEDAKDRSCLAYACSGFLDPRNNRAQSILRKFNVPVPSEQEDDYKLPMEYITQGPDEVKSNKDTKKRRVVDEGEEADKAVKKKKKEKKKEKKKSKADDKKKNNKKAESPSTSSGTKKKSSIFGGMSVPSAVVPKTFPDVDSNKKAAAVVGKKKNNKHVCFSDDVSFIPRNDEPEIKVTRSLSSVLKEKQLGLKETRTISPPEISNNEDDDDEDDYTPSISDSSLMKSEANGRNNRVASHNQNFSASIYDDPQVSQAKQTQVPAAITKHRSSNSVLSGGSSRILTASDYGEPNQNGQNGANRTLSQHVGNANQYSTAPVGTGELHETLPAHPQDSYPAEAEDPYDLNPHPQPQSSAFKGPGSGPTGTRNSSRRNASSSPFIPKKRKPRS

Legend:
[1] = biological target: Glc7-FLAG, endogenously expressed (budding yeast (endogenous in yeast cells)) (UniProt P32598); assay: affinity purification with mass spectrometry; endogenous Glc7-FLAG immunoprecipitated from yeast lysate with anti-FLAG agarose beads, 4 °C, 4 h; IP buffer 40 mM HEPES pH7.5, 150 mM NaCl, 10% glycerol, 0.1% Tween-20; on-bead trypsin digest, LC-MS
[2] = biological target: Glc7-FLAG, endogenously expressed (budding yeast (endogenous in yeast cells)) (UniProt P32598); assay: as above; remark: listed apart in the source

Molecule	binding [1]	binding [2]
Rif1 (Rap1-interacting factor 1), endogenously expressed (tag not stated) (from UniProt P29539 1-1916)	binds	
Sen1, endogenously expressed (tag not stated) (from UniProt Q00416 1-2231)	binds	
Rap1, endogenously expressed (tag not stated) (protein, UniProt P11938 1-827) MSSPDDFETAPAEYVDALDPSMVVVDSGSAAVTAPSDSAAEVKANQNEENTGATAAETSEKVDQTEVEKKDDDDTTEVGVTTTTPSIADTAATANIASTSGASVTEPTTDDTAADEKKEQVSGPPLSNMKFYLNRDADAHDSLNDIDQLARLIRANGGEVLDSKPRESKENVFIVSPYNHTNLPTVTPTYIKACCQSNSLLNMENYLVPYDNFREVVDSRLQEESHSNGVDNSNSNSDNKDSIRPKTEIISTNTNGATEDSTSEKVMVDAEQQARLQEQAQLLRQHVSSTASITSGGHNDLVQIEQPQKDTSNNNNSNVNDEDNDLLTQDNNPQTADEGNASFQAQRSMISRGALPSHNKASFTDEEDEFILDVVRKNPTRRTTHTLYDEISHYVPNHTGNSIRHRFRVYLSKRLEYVYEVDKFGKLVRDDDGNLIKTKVLPPSIKRKFSADEDYTLAIAVKKQFYRDLFQIDPDTGRSLITDEDTPTAIARRNMTMDPNHVPGSEPNFAAYRTQSRRGPIAREFFKHFAEEHAAHTENAWRDRFRKFLLAYGIDDYISYYEAEKAQNREPEPMKNLTNRPKRPGVPTPGNYNSAAKRARNYSSQRNVQPTANAASANAAAAAAAAASNSYAIPENELLDEDTMNFISSLKNDLSNISNSLPFEYPHEIAEAIRSDFSNEDIYDNIDPDTISFPPKIATTDLFLPLFFHFGSTRQFMDKLHEVISGDYEPSQAEKLVQDLCDETGIRKNFSTSILTCLSGDLMVFPRYFLNMFKDNVNPPPNVPGIWTHDDDESLKSNDQEQIRKLVKKHGTGRMEMRKRFFEKDLL		binds
